# PubChem BioAssay AID1259308 | NCATS – 2017
# Test: 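Candidate targets for better recombinant protein yield in mammalian cells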 (primary screen)
# Cell system: human HEK293 embryonic kidney cells stably expressing firefly luciferase (HEK-CMV-Luc2-Hygro)
# Reagent: single siRNA against human genes, 0.8 pmol siRNA per well
# Timing: 72 h
# Read-out: 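Luciferase light (ONE-Glo) measured on one replicate plate set and viability (CellTiter-Glo) on the other, scaled to a negative control siRNA, with robust z-scores and luciferase per cell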
# Scale: total luciferase, z-score and total luciferase, % of control: higher = more reporter protein produced; luciferase per cell, z-score: higher = more reporter output per viable cell; viable cells, % of control: higher = more viable cells
# Rule for the call: 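Active when the median/MAD z-score for overall luciferase is greater than 3; a gene was taken forward for validation with new siRNAs if at least two of its three siRNAs passed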
# Meaning of the calls: active = raised luciferase; inactive = no rise
# In all, the deposit lists about 59,000 reagents; below is a random part of them. About 1,510 of them (2.6%) count as active. 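Calls use total luciferase alone and ignore viability, so some active siRNAs may act by altering cell number.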 The numbers tell different reagents against one gene apart.
Target gene,siRNA no.,"total luciferase, z-score","total luciferase, % of control","luciferase per cell, z-score","viable cells, % of control",outcome
SLC16A11,1,1.51,112,0.519,109,inactive
SLC16A11,2,-1.12,59.5,-2.2,119,inactive
SLC16A11,3,1.28,107,1,92.1,inactive
GATA3-AS1,1,1.57,113,0.309,117,inactive
GATA3-AS1,2,0.854,98.9,0.508,96.6,inactive
GATA3-AS1,3,-0.849,65,-0.94,93,inactive
ARPP19P2,1,0.672,95.3,1.48,72,inactive
ARPP19P2,2,1.94,120,2.81,64.2,inactive
ARPP19P2,3,0.828,98.4,0.698,91.5,inactive
CYP17A1,1,-0.667,68.6,-0.487,87.2,inactive
CYP17A1,2,-0.726,67.4,-0.333,82.3,inactive
CYP17A1,3,0.127,84.4,-0.496,107,inactive
OSR2,1,-0.4,73.9,0.178,78.8,inactive
OSR2,2,0.223,86.3,0.763,78.9,inactive
OSR2,3,-0.469,72.6,-0.391,89.9,inactive
LIMK2,1,-1.35,55,0.0573,60.5,inactive
LIMK2,2,0.864,99.1,-0.128,115,inactive
LIMK2,3,-1.44,53.2,-2.13,104,inactive
KISS1R,1,-0.547,71,0.746,65.2,inactive
KISS1R,2,0.00487,82,-0.347,100,inactive
KISS1R,3,-0.731,67.3,-0.377,83.1,inactive
PIGF,1,-0.496,72,-0.351,88.3,inactive
PIGF,2,0.703,95.9,-0.128,111,inactive
PIGF,3,2.22,126,2.3,76.8,inactive
PAQR6,1,-0.199,77.9,-0.573,101,inactive
PAQR6,2,-0.106,79.8,-0.385,98.7,inactive
PAQR6,3,-0.068,80.5,-0.678,108,inactive
TMEFF1,1,-0.243,77,0.195,81.8,inactive
TMEFF1,2,-0.44,73.1,-0.139,84.8,inactive
TMEFF1,3,0.194,85.8,0.121,92.8,inactive
PMS2,1,1.2,106,1.45,80.7,inactive
PMS2,2,-2.68,28.6,-2.15,56.3,inactive
PMS2,3,-0.253,76.9,-0.213,90.8,inactive
CDCA2,1,-1.05,61,-1.45,99.8,inactive
CDCA2,2,0.628,94.4,0.423,94.3,inactive
CDCA2,3,0.413,90.1,-0.491,115,inactive
CDKN3,1,0.415,90.1,0.111,97.8,inactive
CDKN3,2,0.739,96.6,0.701,89.7,inactive
CDKN3,3,0.311,88.1,0.806,79.6,inactive
HTR1B,1,1.61,114,1.3,90.3,inactive
HTR1B,2,-0.858,64.8,-0.164,75.6,inactive
HTR1B,3,-1.47,52.6,0.145,56.6,inactive
RAMP3,1,0.568,93.2,0.587,89.2,inactive
RAMP3,2,0.614,94.1,-0.197,111,inactive
RAMP3,3,1.45,111,1.6,81.2,inactive
PEBP4,1,-1.03,61.4,0.465,60.7,inactive
PEBP4,2,1.28,107,1.01,92,inactive
PEBP4,3,-0.646,69,-0.922,98.3,inactive
ENDOG,1,-0.908,63.8,-1.32,101,inactive
ENDOG,2,-0.718,67.6,0.978,58.4,inactive
ENDOG,3,-0.732,67.3,-0.193,79.2,inactive
ALG10B,1,0.213,86.1,0.344,87.9,inactive
ALG10B,2,-0.261,76.7,-0.11,88.2,inactive
ALG10B,3,0.45,90.8,0.139,97.9,inactive
FBLN1,1,2.7,136,1.43,104,inactive
FBLN1,2,-0.174,78.4,-0.284,94.4,inactive
FBLN1,3,2.05,123,2.44,72,inactive

9 entries from above, reformatted.
{"Target gene":"ENDOG","siRNA no.":1,"total luciferase, z-score":-0.908,"total luciferase, % of control":63.8,"luciferase per cell, z-score":-1.32,"viable cells, % of control":101,"outcome":"inactive"}
{"Target gene":"ENDOG","siRNA no.":2,"total luciferase, z-score":-0.718,"total luciferase, % of control":67.6,"luciferase per cell, z-score":0.978,"viable cells, % of control":58.4,"outcome":"inactive"}
{"Target gene":"ENDOG","siRNA no.":3,"total luciferase, z-score":-0.732,"total luciferase, % of control":67.3,"luciferase per cell, z-score":-0.193,"viable cells, % of control":79.2,"outcome":"inactive"}
{"Target gene":"ALG10B","siRNA no.":1,"total luciferase, z-score":0.213,"total luciferase, % of control":86.1,"luciferase per cell, z-score":0.344,"viable cells, % of control":87.9,"outcome":"inactive"}
{"Target gene":"ALG10B","siRNA no.":2,"total luciferase, z-score":-0.261,"total luciferase, % of control":76.7,"luciferase per cell, z-score":-0.11,"viable cells, % of control":88.2,"outcome":"inactive"}
{"Target gene":"ALG10B","siRNA no.":3,"total luciferase, z-score":0.45,"total luciferase, % of control":90.8,"luciferase per cell, z-score":0.139,"viable cells, % of control":97.9,"outcome":"inactive"}
{"Target gene":"FBLN1","siRNA no.":1,"total luciferase, z-score":2.7,"total luciferase, % of control":136,"luciferase per cell, z-score":1.43,"viable cells, % of control":104,"outcome":"inactive"}
{"Target gene":"FBLN1","siRNA no.":2,"total luciferase, z-score":-0.174,"total luciferase, % of control":78.4,"luciferase per cell, z-score":-0.284,"viable cells, % of control":94.4,"outcome":"inactive"}
{"Target gene":"FBLN1","siRNA no.":3,"total luciferase, z-score":2.05,"total luciferase, % of control":123,"luciferase per cell, z-score":2.44,"viable cells, % of control":72,"outcome":"inactive"}
